Here are results for 36 molecules from PMC9684564.

Sequences of proteins named here, by UniProt entry; tags and fusion partners are left off.
UniProt Q14974: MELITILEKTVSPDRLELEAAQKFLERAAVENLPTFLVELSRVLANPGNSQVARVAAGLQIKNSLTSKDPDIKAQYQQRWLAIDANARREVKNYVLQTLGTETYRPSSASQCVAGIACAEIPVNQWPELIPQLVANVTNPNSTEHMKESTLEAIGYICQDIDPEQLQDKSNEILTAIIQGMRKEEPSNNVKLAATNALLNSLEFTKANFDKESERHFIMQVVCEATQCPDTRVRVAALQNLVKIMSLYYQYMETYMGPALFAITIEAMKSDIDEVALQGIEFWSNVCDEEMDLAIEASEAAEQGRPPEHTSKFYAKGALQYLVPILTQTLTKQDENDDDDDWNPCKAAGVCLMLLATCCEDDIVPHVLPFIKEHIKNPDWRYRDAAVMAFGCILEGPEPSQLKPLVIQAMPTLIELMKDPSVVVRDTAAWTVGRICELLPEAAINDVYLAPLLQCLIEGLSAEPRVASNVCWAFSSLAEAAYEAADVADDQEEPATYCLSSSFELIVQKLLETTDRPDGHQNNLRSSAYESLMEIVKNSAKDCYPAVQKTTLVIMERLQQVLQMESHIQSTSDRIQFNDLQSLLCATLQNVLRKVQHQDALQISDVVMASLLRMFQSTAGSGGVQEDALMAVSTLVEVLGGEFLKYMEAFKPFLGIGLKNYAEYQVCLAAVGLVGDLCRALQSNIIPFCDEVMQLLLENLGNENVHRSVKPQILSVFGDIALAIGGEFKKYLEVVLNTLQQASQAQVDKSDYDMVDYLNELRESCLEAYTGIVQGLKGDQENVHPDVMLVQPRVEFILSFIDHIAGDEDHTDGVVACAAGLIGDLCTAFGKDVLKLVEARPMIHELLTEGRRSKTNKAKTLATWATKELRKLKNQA
UniProt O43684: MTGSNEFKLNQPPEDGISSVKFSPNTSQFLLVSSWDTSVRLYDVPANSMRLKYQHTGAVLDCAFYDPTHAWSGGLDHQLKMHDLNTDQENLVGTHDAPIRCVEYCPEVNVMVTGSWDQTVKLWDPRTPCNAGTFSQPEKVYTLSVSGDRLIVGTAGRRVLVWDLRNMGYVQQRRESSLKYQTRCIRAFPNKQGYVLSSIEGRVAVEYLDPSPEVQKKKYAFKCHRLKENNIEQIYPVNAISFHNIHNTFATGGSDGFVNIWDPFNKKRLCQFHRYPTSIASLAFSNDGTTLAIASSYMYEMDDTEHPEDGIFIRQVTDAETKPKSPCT
UniProt Q16630: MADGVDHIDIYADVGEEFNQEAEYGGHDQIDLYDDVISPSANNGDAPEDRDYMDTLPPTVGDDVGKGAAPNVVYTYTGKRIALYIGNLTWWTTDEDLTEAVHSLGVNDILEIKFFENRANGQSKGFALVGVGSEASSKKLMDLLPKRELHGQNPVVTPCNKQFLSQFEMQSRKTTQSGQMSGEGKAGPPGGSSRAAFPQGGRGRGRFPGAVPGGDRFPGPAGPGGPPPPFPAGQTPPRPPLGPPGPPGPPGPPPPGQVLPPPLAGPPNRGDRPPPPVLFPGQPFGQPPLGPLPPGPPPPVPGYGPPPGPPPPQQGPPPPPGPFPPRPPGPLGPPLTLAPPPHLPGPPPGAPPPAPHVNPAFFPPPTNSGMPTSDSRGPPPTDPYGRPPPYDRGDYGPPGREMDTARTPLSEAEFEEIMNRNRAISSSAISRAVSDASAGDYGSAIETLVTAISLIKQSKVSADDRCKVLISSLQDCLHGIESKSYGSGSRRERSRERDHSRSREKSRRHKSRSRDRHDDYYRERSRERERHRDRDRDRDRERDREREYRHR
UniProt P60660: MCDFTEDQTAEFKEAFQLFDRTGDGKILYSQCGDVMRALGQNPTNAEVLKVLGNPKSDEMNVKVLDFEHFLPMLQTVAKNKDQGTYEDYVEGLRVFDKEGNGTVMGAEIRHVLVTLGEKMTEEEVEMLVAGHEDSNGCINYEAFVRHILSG
UniProt Q92841: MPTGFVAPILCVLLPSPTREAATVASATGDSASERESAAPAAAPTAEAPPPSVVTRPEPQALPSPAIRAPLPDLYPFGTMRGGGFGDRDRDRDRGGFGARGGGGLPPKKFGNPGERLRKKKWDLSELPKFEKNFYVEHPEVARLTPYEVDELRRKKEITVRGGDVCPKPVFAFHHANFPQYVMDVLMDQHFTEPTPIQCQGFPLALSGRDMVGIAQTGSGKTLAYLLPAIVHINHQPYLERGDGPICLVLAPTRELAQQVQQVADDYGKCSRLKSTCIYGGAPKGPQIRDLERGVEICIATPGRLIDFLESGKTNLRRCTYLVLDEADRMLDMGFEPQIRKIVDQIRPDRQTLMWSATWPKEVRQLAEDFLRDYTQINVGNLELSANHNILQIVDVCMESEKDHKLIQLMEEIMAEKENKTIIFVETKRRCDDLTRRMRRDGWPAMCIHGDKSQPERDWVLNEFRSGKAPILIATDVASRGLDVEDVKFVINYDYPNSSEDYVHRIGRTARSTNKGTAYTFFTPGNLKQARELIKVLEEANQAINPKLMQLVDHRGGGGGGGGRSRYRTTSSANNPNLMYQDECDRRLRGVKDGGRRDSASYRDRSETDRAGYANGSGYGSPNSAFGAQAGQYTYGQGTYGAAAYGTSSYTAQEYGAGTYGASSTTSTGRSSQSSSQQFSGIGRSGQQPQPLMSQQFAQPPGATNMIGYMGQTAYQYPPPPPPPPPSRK
UniProt P35637: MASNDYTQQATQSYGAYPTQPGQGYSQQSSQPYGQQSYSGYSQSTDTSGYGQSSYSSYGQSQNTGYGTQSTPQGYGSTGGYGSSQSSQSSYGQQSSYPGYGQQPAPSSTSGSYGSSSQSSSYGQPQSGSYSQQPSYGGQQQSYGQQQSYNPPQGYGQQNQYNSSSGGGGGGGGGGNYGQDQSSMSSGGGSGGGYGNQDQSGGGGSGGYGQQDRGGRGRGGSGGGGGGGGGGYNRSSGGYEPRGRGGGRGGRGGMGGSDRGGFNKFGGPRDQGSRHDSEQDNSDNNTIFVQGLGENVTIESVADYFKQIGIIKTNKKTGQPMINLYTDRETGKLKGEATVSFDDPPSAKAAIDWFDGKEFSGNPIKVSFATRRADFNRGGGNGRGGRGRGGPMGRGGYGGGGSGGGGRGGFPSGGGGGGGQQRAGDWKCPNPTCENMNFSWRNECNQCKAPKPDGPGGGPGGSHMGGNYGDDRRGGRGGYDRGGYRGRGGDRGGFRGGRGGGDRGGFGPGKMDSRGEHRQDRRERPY
UniProt P27694: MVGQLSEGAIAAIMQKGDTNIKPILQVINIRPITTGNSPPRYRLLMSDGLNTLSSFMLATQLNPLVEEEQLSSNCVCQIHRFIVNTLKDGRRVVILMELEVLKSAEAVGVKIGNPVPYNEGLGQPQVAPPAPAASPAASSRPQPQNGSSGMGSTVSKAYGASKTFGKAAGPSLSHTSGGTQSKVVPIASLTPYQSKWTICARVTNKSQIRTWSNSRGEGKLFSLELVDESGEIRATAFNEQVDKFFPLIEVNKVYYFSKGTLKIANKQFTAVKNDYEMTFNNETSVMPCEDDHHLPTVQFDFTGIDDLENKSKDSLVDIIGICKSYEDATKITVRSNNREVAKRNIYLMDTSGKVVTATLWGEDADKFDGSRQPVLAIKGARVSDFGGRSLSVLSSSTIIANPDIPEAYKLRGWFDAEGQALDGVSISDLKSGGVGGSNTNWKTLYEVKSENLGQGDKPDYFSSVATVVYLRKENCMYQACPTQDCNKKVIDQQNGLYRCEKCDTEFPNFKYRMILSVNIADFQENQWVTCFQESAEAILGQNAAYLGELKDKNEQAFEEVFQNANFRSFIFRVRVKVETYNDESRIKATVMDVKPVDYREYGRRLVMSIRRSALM
UniProt Q8TAQ2: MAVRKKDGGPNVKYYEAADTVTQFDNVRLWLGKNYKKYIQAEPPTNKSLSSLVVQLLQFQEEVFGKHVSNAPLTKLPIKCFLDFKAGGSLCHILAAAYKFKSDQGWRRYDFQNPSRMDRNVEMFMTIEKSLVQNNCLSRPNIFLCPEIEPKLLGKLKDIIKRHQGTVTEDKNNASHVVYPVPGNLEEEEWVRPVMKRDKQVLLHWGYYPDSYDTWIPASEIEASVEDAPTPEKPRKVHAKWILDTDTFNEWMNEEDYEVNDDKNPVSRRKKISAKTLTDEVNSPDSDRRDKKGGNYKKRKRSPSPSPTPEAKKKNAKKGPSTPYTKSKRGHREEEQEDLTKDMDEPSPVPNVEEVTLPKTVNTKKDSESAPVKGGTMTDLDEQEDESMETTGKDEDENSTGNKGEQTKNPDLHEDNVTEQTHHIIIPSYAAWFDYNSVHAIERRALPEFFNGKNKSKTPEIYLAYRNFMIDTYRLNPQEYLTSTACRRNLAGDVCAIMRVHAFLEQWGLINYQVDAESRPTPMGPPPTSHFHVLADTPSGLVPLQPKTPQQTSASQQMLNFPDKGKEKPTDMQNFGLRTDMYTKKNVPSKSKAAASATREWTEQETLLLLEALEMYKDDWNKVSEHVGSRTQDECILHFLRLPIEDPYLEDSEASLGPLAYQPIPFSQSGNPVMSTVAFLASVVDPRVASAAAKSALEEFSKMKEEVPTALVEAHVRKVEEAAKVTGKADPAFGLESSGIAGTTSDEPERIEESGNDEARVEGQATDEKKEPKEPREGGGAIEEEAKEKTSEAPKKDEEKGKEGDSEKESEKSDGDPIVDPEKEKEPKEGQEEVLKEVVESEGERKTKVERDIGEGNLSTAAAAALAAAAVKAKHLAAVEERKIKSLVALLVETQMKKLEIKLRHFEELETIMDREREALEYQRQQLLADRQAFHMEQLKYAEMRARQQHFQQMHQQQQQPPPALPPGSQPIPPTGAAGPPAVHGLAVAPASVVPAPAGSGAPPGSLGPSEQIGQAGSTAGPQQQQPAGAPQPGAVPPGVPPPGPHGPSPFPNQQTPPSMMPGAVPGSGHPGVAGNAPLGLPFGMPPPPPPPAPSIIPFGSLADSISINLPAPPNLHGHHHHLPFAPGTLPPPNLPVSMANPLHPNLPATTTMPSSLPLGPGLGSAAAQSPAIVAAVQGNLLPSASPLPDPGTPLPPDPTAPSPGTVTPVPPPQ
UniProt P23258: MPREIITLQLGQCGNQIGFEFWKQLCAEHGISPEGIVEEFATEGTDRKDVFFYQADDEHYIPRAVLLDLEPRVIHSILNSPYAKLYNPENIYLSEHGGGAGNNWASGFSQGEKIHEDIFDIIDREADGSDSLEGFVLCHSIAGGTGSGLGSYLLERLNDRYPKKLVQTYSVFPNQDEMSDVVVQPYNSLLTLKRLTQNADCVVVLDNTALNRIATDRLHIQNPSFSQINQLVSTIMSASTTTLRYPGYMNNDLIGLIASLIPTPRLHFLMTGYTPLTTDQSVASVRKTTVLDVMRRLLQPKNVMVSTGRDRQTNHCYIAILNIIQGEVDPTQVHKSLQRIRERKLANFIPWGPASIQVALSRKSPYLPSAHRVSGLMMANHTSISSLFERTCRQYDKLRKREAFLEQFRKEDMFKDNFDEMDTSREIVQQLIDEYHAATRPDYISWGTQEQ
UniProt P09012: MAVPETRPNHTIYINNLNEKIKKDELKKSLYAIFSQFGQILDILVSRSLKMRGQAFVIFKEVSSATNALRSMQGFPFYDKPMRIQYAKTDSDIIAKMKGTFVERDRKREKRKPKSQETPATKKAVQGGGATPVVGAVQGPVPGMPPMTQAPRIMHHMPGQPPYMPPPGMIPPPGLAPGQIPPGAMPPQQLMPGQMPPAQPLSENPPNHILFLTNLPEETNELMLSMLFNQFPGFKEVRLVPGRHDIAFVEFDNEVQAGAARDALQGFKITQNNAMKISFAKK
UniProt Q96RN5: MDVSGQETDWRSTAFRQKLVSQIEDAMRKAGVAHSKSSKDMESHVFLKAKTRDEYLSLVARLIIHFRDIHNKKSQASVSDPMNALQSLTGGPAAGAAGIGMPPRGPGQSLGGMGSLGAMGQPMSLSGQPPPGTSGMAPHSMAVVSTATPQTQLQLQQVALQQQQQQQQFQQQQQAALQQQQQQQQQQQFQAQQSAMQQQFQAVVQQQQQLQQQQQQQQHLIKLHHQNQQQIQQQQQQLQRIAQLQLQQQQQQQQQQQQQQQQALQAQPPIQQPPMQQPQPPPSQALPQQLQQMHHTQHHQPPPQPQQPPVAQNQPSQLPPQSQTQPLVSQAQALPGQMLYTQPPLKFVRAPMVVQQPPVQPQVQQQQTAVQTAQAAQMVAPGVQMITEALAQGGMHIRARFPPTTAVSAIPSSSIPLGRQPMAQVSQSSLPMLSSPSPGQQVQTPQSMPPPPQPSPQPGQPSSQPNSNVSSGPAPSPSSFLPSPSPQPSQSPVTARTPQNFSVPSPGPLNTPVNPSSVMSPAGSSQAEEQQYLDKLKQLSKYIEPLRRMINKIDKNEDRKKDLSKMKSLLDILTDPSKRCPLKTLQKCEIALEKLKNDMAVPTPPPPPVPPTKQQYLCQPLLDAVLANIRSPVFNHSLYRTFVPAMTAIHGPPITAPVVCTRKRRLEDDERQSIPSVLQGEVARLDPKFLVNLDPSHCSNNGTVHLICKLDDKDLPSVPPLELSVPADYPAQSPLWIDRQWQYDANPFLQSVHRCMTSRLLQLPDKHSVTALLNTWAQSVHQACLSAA

First the molecules themselves.
B1: Heterogeneous nuclear ribonucleoprotein H3 (protein, UniProt P31942 1-346)
chain: MDWVMKHNGPNDASDGTVRLRGLPFGCSKEEIVQFFQGLEIVPNGITLTMDYQGRSTGEAFVQFASKEIAENALGKHKERIGHRYIEIFRSSRSEIKGFYDPPRRLLGQRPGPYDRPIGGRGGYYGAGRGSMYDRMRRGGDGYDGGYGGFDDYGGYNNYGYGNDGFDDRMRDGRGMGGHGYGGAGDASSGFHGGHFVHMRGLPFRATENDIANFFSPLNPIRVHIDIGADGRATGEADVEFVTHEDAVAAMSKDKNNMQHRYIELFLNSTPGGGSGMGGSGMGGYGRDGMDNQGGYGSVGRMGMGNNYSGGYGTPDGLGGYGRGGGGSGGYYGQGGMSGGGWRGMY
B2: Paraspeckle component 1 (protein, UniProt Q8WXF1 1-523)
chain: MMLRGNLKQVRIEKNPARLRALESAVGESEPAAAAAMALALAGEPAPPAPAPPEDHPDEEMGFTIDIKSFLKPGEKTYTQRCRLFVGNLPTDITEEDFKRLFERYGEPSEVFINRDRGFGFIRLESRTLAEIAKAELDGTILKSRPLRIRFATHGAALTVKNLSPVVSNELLEQAFSQFGPVEKAVVVVDDRGRATGKGFVEFAAKPPARKALERCGDGAFLLTTTPRPVIVEPMEQFDDEDGLPEKLMQKTQQYHKEREQPPRFAQPGTFEFEYASRWKALDEMEKQQREQVDRNIREAKEKLEAEMEAARHEHQLMLMRQDLMRRQEELRRLEELRNQELQKRKQIQLRHEEEHRRREEEMIRHREQEELRRQQEGFKPNYMENREQEMRMGDMGPRGAINMGDAFSPAPAGNQGPPPMMGMNMNNRATIPGPPMGPGPAMGPEGAANMGTPMMPDNGAVHNDRFPQGPPSQMGSPMGSRTGSETPQAPMSGVGPVSGGPGGFGRGSQGGNFEGPNKRRRY
B3: Nuclear pore complex protein Nup93 (protein, UniProt Q8N1F7 1-819)
chain: MDTEGFGELLQQAEQLAAETEGISELPHVERNLQEIQQAGERLRSRTLTRTSQETADVKASVLLGSRGLDISHISQRLESLSAATTFEPLEPVKDTDIQGFLKNEKDNALLSAIEESRKRTFGMAEEYHRESMLVEWEQVKQRILHTLLASGEDALDFTQESEPSYISDVGPPGRSSLDNIEMAYARQIYIYNEKIVNGHLQPNLVDLCASVAELDDKSISDMWTMVKQMTDVLLTPATDALKNRSSVEVRMEFVRQALAYLEQSYKNYTLVTVFGNLHQAQLGGVPGTYQLVRSFLNIKLPAPLPGLQDGEVEGHPVWALIYYCMRCGDLLAASQVVNRAQHQLGEFKTWFQEYMNSKDRRLSPATENKLRLHYRRALRNNTDPYKRAVYCIIGRCDVTDNQSEVADKTEDYLWLKLNQVCFDDDGTSSPQDRLTLSQFQKQLLEDYGESHFTVNQQPFLYFQVLFLTAQFEAAVAFLFRMERLRCHAVHVALVLFELKLLLKSSGQSAQLLSHEPGDPPCLRRLNFVRLLMLYTRKFESTDPREALQYFYFLRDEKDSQGENMFLRCVSELVIESREFDMILGKLENDGSRKPGVIDKFTSDTKPIINKVASVAENKGLFEEAAKLYDLAKNADKVLELMNKLLSPVVPQISAPQSNKERLKNMALSIAERYRAQGISANKFVDSTFYLLLDLITFFDEYHSGHIDRAFDIIERLKLVPLNQESVEERVAAFRNFSDEIRHNLSEVLLATMNILFTQFKRLKGTSPSSSSRPQRVIEDRDSQLRSQARTLITFAGMIPYRTSGDTNARLVQMEVLMN
B4: Heterogeneous nuclear ribonucleoprotein R (protein, UniProt O43390 1-633)
chain: MANQVNGNAVQLKEEEEPMDTSSVTHTEHYKTLIEAGLPQKVAERLDEIFQTGLVAYVDLDERAIDALREFNEEGALSVLQQFKESDLSHVQNKSAFLCGVMKTYRQREKQGSKVQESTKGPDEAKIKALLERTGYTLDVTTGQRKYGGPPPDSVYSGVQPGIGTEVFVGKIPRDLYEDELVPLFEKAGPIWDLRLMMDPLSGQNRGYAFITFCGKEAAQEAVKLCDSYEIRPGKHLGVCISVANNRLFVGSIPKNKTKENILEEFSKVTEGLVDVILYHQPDDKKKNRGFCFLEYEDHKSAAQARRRLMSGKVKVWGNVVTVEWADPVEEPDPEVMAKVKVLFVRNLATTVTEEILEKSFSEFGKLERVKKLKDYAFVHFEDRGAAVKAMDEMNGKEIEGEEIEIVLAKPPDKKRKERQAARQASRSTAYEDYYYHPPPRMPPPIRGRGRGGGRGGYGYPPDYYGYEDYYDDYYGYDYHDYRGGYEDPYYGYDDGYAVRGRGGGRGGRGAPPPPRGRGAPPPRGRAGYSQRGAPLGPPRGSRGGRGGPAQQQRGRGSRGSRGNRGGNVGGKRKADGYNQPDSKRRQTNNQQNWGSQPIAQQPLQQGGDYSGNYGYNNDNQEFYQDTYGQQWK
B5: Cleavage stimulation factor subunit 1 (protein, UniProt Q05048 1-431)
chain: MYRTKVGLKDRQQLYKLIISQLLYDGYISIANGLINEIKPQSVCAPSEQLLHLIKLGMENDDTAVQYAIGRSDTVAPGTGIDLEFDADVQTMSPEASEYETCYVTSHKGPCRVATYSRDGQLIATGSADASIKILDTERMLAKSAMPIEVMMNETAQQNMENHPVIRTLYDHVDEVTCLAFHPTEQILASGSRDYTLKLFDYSKPSAKRAFKYIQEAEMLRSISFHPSGDFILVGTQHPTLRLYDINTFQCFVSCNPQDQHTDAICSVNYNSSANMYVTGSKDGCIKLWDGVSNRCITTFEKAHDGAEVCSAIFSKNSKYILSSGKDSVAKLWEISTGRTLVRYTGAGLSGRQVHRTQAVFNHTEDYVLLPDERTISLCCWDSRTAERRNLLSLGHNNIVRCIVHSPTNPGFMTCSDDFRARFWYRRSTTD
B6: UPF0568 protein C14orf166 (protein, UniProt Q9Y224 1-244)
chain: MFRRKLTALDYHNPAGFNCKDETEFRNFIVWLEDQKIRHYKIEDRGNLRNIHSSDWPKFFEKYLRDVNCPFKIQDRQEAIDWLLGLAVRLEYGDNAEKYKDLVPDNSKTADNATKNAEPLINLDVNNPDFKAGVMALANLLQIQRHDDYLVMLKAIRILVQERLTQDAVAKANQTKEGLPVALDKHILGFDTGDAVLNEAAQILRLLHIEELRELQTKINEAIVAVQAIIADPKTDHRLGKVGR
B7: Heterogeneous nuclear ribonucleoprotein A0 (protein, UniProt Q13151 1-305)
chain: MENSQLCKLFIGGLNVQTSESGLRGHFEAFGTLTDCVVVVNPQTKRSRCFGFVTYSNVEEADAAMAASPHAVDGNTVELKRAVSREDSARPGAHAKVKKLFVGGLKGDVAEGDLIEHFSQFGTVEKAEIIADKQSGKKRGFGFVYFQNHDAADKAAVVKFHPIQGHRVEVKKAVPKEDIYSGGGGGGSRSSRGGRGGRGRGGGRDQNGLSKGGGGGYNSYGGYGGGGGGGYNAYGGGGGGSSYGGSDYGNGFGGFGSYSQHQSSYGPMKSGGGGGGGGSSWGGRSNSGPYRGGYGGGGGYGGSSF

These are yes or no findings as the source states them, for the method shown. Binding seen in cells or lysates may run through a third protein. These calls come from enrichment with a bait or labelling near it, and not all partners need be listed.

The experiment has as its target Karyopherin beta 1 (human (endogenous in hTERT-RPE1, HeLa, WHCO5, KYSE30)) (UniProt Q14974). Put plainly: affinity purification with mass spectrometry; endogenous Kpnβ1 precipitated with 50 µg anti-Karyopherin β1 (H-7) agarose-conjugated antibody from 500 µg lysate of hTERT-RPE1, HeLa, WHCO5 or KYSE30 cells; non-denaturing lysis buffer (1% Triton X-100, 120 mM NaCl, 1 mM CaCl2, 25 mM Tris, pH 7.4); 4 °C overnight; no cross-linking; hits present in all three replicates and absent from the IgG isotype controls.
In the case of “ATP-dependent RNA helicase DDX3X (from UniProt O00571 1-662)”, the binding result was “binds”.
Under “Actin-like protein 6A (from UniProt O96019 1-429)” stands “binds”; under BUB3 (from UniProt O43684 1-328), “binds”.
On to “CCR4-NOT transcription complex subunit 1 (from UniProt A5YKK6 1-2376)”, for which the binding result is recorded as “binds”.
As to CRM1 (from UniProt O14980 1-1071), the binding result is reported as “binds”.
In the case of “Cleavage and polyadenylation specificity factor subunit 6 (from UniProt Q16630 1-551)”, the binding result is “binds”.
Under “ELAV-like protein 1 (from UniProt Q15717 1-326)” stands “binds”; under “Far upstream element-binding protein 1 (from UniProt Q96AE4 1-644)”, “binds”.
Consider “Far upstream element-binding protein 3 (from UniProt Q96I24 1-572)”, for which the binding result is recorded as “binds”.
Next, “Heterogeneous nuclear ribonucleoprotein A/B (from UniProt Q99729 1-332)”: “binds”; “Myosin light polypeptide 6 (from UniProt P60660 1-151)”: “binds”; “Probable ATP-dependent RNA helicase DDX5 (from UniProt P17844 1-614)”: “binds”.
Regarding “Probable ATP-dependent RNA helicase DDX17 (from UniProt Q92841 1-729)”, the binding entry is on record as “binds”.
Next, “Protein transport protein Sec23A (from UniProt Q15436 1-765)”: “binds”; “RNA-binding protein EWS (from UniProt Q01844 1-656)”: “binds”; “RNA-binding protein FUS (from UniProt P35637 1-526)”: “binds”.
Under “Replication protein A 70 kDa DNA-binding subunit (from UniProt P27694 1-616)” stands “binds”.
In the case of “SWI/SNF complex subunit SMARCC2 (from UniProt Q8TAQ2 1-1214)”, the binding entry is “binds”.
In the case of “SWI/SNF-related regulator of chromatin, SMARCE1 (from UniProt Q969G3 1-411)”, the binding result is “binds”.
Consider “Serine/arginine-rich splicing factor 1 (from UniProt Q07955 1-248)”, for which the binding result was “binds”.
Next, “Small nuclear ribonucleoprotein Sm D2 (from UniProt P62316 1-118)”: “binds”.
Turning to “Small nuclear ribonucleoprotein Sm D3 (from UniProt P62318 1-126)”, the binding result was “binds”.
Regarding “Splicing factor 3B subunit 2 (from UniProt Q13435 1-895)”, the binding result was “binds”.
Next, “Tubulin gamma-1 chain (from UniProt P23258 1-451)”: “binds”; “U1 small nuclear ribonucleoprotein 70 kDa (from UniProt P08621 1-437)”: “binds”.
Under “U1 small nuclear ribonucleoprotein A (from UniProt P09012 1-282)” stands “binds”; under “mediator of RNA polymerase II transcription subunit 15 (from UniProt Q96RN5 1-788)”, “binds”; under “tubulin TUBA4A (from UniProt P68366 1-448)”, “binds”.
Turning to “tubulin TUBB6 (from UniProt Q9BUF5 1-446)”, the binding entry was “binds”.
As to B1, the binding entry was “binds”.
Under B2 stands “binds”.
Take B3: the binding entry was “binds”.
As for B4, the binding entry is “binds”.
Under B5 stands “binds”; under B6, “binds”; under B7, “binds”.
